Experimental data: patent publication US20030157712A1, “Methods for determining cell responses through EphB receptors” (priority 1997, published 2003)
Some of these results come from one statement about several compounds together.

Target: T1, EphB1 (Homo sapiens, UniProt P54762)
T1 construct: Ligand stimulation and immunoprecipitation of endogenous EphB receptors; endogenous in cells; host or cells: HRMEC (human); P19 (murine teratocarcinoma) in part of the results
T1 sequence (P54762 18-984): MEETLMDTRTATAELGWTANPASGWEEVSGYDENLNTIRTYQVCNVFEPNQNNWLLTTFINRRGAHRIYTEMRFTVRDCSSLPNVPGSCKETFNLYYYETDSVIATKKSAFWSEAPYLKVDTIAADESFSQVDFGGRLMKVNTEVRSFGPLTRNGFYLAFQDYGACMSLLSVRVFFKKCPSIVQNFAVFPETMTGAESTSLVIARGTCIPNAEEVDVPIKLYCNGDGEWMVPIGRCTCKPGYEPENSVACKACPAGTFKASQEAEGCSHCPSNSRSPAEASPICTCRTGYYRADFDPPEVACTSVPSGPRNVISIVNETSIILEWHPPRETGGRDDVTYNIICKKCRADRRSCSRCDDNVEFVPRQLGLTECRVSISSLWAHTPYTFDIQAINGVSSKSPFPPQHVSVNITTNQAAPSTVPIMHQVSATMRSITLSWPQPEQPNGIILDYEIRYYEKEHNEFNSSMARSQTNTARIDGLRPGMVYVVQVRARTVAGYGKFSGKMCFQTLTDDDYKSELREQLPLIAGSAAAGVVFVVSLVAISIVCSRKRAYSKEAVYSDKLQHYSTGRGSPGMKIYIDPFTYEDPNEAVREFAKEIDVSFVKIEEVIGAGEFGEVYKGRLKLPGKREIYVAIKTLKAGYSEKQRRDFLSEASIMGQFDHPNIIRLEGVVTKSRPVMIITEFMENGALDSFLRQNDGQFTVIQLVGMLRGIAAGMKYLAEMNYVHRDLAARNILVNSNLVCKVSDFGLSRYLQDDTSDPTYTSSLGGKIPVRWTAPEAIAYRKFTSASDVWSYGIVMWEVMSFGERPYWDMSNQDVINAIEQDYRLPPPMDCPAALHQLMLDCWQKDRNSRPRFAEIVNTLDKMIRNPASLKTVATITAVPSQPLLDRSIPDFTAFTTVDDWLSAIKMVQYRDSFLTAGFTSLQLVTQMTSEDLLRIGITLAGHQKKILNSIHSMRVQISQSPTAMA
Experiment: EphB1 immunoprecipitation and phosphotyrosine immunoblot
Assay type: cell-based
Conditions: HRMEC plated on Matrigel-coated dishes

B1: ephrin-B1/Fc dimers: disulfide-linked immunoglobulin Fc fusion form of ephrin-B1 (protein)
chain: LAKNLEPVSWSSLNPKFLSGKGLVIYPKIGDKLDIICPRAEAGRPYEYYKLYLVRPEQAAACSTVLDPNVLVTCNRPEQEIRFTIKFQEFSPNYMGLEFKKHHDYYITSTSNGSLEGLENREGGVCRTRTMKIIMKVGQDPNAVTPEQLTTSRPSKEADNTVKMATQAPGSRGSLGDSDGKHETVNQEEKSGPGASGGSSGDPDGFFNSK
modifications: left off: a dimerising Fc or GST
  concentrations promoting endothelial EphB1 activation and tyrosine phosphorylation: 15 to 1000 ng/mL
